PMC6826936

Chains of the proteins cited; added tags and fusions are not shown.
UniProt Q9H9B1: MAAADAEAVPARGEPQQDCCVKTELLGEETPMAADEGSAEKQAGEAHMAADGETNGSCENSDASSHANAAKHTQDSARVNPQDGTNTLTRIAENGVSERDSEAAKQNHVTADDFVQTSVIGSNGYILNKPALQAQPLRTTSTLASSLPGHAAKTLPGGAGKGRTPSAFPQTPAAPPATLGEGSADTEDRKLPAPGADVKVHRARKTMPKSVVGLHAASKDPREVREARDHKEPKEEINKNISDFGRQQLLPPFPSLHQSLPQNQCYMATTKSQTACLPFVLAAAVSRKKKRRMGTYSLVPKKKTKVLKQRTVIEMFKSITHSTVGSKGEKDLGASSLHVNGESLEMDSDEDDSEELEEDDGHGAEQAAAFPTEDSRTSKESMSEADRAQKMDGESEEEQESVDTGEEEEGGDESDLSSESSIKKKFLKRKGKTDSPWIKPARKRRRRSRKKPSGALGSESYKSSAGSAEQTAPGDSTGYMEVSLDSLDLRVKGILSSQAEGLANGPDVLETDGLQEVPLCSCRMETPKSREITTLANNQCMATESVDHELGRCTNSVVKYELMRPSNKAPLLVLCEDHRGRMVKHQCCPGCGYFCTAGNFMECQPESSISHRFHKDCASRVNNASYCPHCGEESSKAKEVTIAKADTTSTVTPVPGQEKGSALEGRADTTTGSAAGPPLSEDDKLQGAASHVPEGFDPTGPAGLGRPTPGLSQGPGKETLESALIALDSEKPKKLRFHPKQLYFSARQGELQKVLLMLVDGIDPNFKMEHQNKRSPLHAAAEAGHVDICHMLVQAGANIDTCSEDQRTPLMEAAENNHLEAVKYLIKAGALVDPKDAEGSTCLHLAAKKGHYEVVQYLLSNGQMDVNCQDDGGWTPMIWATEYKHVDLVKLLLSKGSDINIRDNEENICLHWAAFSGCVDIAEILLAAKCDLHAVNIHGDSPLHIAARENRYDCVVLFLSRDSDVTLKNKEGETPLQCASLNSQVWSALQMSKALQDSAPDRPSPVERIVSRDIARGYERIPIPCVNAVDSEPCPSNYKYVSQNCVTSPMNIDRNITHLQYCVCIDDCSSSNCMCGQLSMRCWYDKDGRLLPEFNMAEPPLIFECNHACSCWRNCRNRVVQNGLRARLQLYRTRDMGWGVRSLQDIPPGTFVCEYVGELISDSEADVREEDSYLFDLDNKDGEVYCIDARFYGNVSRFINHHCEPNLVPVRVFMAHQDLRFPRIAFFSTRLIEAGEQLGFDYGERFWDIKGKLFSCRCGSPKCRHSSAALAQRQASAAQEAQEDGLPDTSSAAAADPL
UniProt P13010: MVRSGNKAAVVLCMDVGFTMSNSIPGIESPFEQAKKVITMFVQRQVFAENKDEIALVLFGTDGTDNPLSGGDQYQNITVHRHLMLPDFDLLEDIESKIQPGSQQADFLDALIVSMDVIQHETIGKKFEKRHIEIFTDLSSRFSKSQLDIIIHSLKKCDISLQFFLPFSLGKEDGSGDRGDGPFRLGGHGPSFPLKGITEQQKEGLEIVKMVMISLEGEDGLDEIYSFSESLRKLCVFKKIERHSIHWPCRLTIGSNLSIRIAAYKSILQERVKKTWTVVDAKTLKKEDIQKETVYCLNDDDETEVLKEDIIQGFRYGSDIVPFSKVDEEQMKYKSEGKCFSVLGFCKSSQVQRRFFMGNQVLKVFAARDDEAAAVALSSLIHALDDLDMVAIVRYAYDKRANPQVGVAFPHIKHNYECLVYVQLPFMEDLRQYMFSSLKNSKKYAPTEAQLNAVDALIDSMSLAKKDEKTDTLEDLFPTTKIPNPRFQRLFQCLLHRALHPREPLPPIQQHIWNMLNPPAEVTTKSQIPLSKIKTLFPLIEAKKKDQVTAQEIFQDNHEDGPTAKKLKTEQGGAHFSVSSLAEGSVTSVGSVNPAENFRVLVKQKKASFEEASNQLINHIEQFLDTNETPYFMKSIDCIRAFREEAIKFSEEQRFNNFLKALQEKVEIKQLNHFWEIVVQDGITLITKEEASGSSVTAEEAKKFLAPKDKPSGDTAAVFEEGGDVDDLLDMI
UniProt Q13148: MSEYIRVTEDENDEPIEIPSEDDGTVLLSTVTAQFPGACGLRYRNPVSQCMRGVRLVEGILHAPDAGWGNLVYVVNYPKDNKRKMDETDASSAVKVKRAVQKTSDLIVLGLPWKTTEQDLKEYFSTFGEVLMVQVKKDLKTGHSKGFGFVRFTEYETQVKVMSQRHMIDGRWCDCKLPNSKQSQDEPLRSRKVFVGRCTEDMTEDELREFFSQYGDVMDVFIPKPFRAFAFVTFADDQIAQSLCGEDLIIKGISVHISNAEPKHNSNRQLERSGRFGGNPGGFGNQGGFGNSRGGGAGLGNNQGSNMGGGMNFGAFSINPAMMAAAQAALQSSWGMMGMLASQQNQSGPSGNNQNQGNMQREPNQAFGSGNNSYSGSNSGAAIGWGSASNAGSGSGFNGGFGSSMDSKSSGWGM
UniProt P78527: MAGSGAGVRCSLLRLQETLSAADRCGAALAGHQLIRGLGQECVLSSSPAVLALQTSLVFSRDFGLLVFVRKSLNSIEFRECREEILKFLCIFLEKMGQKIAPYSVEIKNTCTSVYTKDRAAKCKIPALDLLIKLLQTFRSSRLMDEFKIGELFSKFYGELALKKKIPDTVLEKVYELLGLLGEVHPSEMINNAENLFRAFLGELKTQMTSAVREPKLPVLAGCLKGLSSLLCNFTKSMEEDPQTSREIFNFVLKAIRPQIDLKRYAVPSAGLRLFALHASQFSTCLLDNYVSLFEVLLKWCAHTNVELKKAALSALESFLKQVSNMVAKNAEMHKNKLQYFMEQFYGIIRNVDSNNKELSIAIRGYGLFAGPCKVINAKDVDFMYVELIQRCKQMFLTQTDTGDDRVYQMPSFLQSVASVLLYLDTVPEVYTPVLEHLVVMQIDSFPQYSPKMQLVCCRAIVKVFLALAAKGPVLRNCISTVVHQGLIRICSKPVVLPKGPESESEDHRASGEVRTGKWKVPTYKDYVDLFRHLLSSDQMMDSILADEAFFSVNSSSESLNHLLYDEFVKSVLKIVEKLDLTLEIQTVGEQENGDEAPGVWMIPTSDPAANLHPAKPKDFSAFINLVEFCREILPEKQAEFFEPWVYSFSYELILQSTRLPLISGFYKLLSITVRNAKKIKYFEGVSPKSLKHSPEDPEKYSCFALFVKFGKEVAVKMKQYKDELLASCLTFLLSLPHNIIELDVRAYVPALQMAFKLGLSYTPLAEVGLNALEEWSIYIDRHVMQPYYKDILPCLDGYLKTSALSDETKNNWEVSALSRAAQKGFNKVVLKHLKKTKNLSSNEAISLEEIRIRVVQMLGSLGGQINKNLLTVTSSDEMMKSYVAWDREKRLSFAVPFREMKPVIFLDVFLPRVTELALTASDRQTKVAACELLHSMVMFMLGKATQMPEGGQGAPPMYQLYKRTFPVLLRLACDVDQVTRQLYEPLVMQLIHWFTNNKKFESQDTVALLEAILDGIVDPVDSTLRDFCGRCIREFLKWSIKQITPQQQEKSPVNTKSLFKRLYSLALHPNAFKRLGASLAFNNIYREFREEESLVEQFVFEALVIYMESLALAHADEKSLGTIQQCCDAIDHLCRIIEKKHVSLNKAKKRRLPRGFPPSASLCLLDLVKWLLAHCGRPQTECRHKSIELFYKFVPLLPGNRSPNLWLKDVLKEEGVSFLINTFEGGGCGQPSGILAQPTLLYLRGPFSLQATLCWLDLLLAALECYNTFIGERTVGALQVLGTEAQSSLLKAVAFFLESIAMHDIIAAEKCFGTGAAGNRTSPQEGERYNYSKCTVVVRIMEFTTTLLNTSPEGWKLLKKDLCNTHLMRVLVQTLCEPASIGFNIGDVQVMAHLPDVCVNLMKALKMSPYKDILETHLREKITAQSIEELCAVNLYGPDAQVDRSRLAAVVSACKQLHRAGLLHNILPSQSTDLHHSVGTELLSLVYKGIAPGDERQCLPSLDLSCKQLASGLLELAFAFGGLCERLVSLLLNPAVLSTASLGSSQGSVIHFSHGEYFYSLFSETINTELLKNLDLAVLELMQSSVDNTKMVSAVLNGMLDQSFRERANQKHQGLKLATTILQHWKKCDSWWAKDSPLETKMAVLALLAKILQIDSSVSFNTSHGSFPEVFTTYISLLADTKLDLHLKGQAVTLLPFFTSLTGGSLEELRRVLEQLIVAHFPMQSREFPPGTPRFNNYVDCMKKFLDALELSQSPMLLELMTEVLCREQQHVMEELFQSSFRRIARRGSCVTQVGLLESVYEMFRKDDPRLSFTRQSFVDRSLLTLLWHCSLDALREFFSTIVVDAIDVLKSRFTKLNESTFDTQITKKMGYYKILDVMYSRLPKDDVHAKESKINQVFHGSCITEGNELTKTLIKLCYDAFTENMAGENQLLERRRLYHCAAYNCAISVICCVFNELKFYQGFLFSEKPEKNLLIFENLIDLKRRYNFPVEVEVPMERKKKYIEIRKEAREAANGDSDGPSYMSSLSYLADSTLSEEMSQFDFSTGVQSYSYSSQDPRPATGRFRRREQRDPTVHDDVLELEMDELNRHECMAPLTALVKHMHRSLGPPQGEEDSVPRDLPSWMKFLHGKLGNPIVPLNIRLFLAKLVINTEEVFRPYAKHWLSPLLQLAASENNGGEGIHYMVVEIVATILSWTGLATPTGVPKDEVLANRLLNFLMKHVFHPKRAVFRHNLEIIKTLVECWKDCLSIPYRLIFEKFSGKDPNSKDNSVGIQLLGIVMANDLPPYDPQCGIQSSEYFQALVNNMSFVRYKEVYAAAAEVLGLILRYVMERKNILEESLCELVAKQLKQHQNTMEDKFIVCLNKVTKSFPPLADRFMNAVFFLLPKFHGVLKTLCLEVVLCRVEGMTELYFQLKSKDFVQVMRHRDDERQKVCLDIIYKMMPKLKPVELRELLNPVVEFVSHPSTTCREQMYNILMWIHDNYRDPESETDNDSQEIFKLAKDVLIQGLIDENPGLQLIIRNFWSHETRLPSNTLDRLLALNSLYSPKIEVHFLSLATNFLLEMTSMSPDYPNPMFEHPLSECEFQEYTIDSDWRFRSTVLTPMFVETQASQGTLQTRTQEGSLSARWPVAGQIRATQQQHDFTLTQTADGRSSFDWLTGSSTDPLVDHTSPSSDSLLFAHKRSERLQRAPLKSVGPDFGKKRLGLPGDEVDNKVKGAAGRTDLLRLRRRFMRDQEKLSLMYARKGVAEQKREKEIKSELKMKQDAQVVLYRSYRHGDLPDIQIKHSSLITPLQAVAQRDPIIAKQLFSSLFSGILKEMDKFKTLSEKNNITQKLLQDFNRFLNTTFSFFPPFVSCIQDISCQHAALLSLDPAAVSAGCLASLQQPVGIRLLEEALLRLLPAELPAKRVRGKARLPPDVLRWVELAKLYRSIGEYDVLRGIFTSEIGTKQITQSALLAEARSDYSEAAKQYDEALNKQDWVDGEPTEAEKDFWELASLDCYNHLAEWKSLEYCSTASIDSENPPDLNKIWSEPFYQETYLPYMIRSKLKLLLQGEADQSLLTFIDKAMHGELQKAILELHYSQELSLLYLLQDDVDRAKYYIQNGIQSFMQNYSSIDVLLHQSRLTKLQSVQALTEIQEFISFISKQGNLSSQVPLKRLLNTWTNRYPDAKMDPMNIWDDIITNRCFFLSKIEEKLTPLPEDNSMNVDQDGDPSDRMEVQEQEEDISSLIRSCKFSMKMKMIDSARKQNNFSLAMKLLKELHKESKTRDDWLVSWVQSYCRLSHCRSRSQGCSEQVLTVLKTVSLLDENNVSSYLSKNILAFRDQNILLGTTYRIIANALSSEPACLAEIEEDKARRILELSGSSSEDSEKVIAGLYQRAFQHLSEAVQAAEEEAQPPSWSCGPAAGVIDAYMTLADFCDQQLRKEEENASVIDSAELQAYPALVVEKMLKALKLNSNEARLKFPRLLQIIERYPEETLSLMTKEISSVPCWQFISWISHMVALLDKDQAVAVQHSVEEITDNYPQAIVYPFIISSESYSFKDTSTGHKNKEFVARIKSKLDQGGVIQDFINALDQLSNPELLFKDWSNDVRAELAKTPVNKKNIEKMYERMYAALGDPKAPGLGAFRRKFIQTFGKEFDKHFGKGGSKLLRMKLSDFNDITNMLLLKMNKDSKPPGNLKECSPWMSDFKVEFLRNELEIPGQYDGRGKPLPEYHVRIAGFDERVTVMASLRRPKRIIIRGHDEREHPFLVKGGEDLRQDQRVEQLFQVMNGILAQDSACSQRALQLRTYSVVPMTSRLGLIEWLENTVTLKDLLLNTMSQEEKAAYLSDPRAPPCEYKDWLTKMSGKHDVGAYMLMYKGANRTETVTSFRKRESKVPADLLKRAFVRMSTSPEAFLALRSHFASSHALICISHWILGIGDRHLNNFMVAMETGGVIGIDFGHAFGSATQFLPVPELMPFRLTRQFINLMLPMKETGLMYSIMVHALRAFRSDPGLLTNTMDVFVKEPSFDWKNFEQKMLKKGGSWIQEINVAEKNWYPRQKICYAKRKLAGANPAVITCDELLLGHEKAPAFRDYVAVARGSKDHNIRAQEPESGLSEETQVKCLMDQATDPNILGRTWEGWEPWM

What was measured:
[1] = target: Flag-HA tagged MPP8 chromobox (human) (UniProt Q99549); assay: affinity purification with mass spectrometry; double-affinity (Flag, then HA) immuno-purification of Flag-HA-MPP8 chromobox from nuclear soluble or nucleosome-enriched (chromatin) fractions of HeLa-S3 cells; 4-12% SDS-PAGE, mass spectrometry and Western blot
[2] = target: Flag-HA tagged MPP8 chromobox (human) (UniProt Q99549); assay: as above; remark: listed apart in the source

binding [1]	binding [2]	Molecule
binds		SMARCA1 (from UniProt P28370 1-1042)
binds		G9A (from UniProt Q96KQ7 1-1210)
binds		YBX1 (from UniProt P67809 1-324)
binds		hnRNPP2 (from UniProt P35637 1-526)
binds		GLP (from UniProt Q9H9B1 1-1298)
binds		DDX21 (from UniProt Q9NR30 1-783)
binds		RCC1 (from UniProt P18754 1-421)
binds		TOP1 (from UniProt P11387 1-765)
binds		XRCC5 (from UniProt P13010 1-732)
binds		DDX17 (from UniProt Q92841 1-729)
binds		hnRNPK (from UniProt P61978 1-463)
binds		TARDBP (from UniProt Q13148 1-414)
binds		DNA-PK (from UniProt P78527 1-4128)
binds		XRCC6 (from UniProt P12956 1-609)
	binds	LUC7L2 (protein, UniProt Q9Y383 1-392) MSAQAQMRAMLDQLMGTSRDGDTTRQRIKFSDDRVCKSHLLNCCPHDVLSGTRMDLGECLKVHDLALRADYEIASKEQDFFFELDAMDHLQSFIADCDRRTEVAKKRLAETQEEISAEVAAKAERVHELNEEIGKLLAKVEQLGAEGNVEESQKVMDEVEKARAKKREAEEVYRNSMPASSFQQQKLRVCEVCSAYLGLHDNDRRLADHFGGKLHLGFIEIREKLEELKRVVAEKQEKRNQERLKRREEREREEREKLRRSRSHSKNPKRSRSREHRRHRSRSMSRERKRRTRSKSREKRHRHRSRSSSRSRSRSHQRSRHSSRDRSRERSKRRSSKERFRDQDLASCDRDRSSRDRSPRDRDRKDKKRSYESANGRSEDRRSSEEREAGEI
	binds	hnRNPM (protein, UniProt P52272 1-730) MAAGVEAAAEVAATEIKMEEESGAPGVPSGNGAPGPKGEGERPAQNEKRKEKNIKRGGNRFEPYANPTKRYRAFITNIPFDVKWQSLKDLVKEKVGEVTYVELLMDAEGKSRGCAVVEFKMEESMKKAAEVLNKHSLSGRPLKVKEDPDGEHARRAMQKVMATTGGMGMGPGGPGMITIPPSILNNPNIPNEIIHALQAGRLGSTVFVANLDYKVGWKKLKEVFSMAGVVVRADILEDKDGKSRGIGTVTFEQSIEAVQAISMFNGQLLFDRPMHVKMDERALPKGDFFPPERPQQLPHGLGGIGMGLGPGGQPIDANHLNKGIGMGNIGPAGMGMEGIGFGINKMGGMEGPFGGGMENMGRFGSGMNMGRINEILSNALKRGEIIAKQGGGGGGGSVPGIERMGPGIDRLGGAGMERMGAGLGHGMDRVGSEIERMGLVMDRMGSVERMGSGIERMGPLGLDHMASSIERMGQTMERIGSGVERMGAGMGFGLERMAAPIDRVGQTIERMGSGVERMGPAIERMGLSMERMVPAGMGAGLERMGPVMDRMATGLERMGANNLERMGLERMGANSLERMGLERMGANSLERMGPAMGPALGAGIERMGLAMGGGGGASFDRAIEMERGNFGGSFAGSFGGAGGHAPGVARKACQIFVRNLPFDFTWKMLKDKFNECGHVLYADIKMENGKSKGCGVVKFESPEVAERACRMMNGMKLSGREIDVRIDRNA
	binds	LIG3 (protein, UniProt P49916 43-1009) LLHGHPLFLRRKPVLSFQGSHLRSRATYLVFLPGLHVGLCSGPCEMAEQRFCVDYAKRGTAGCKKCKEKIVKGVCRIGKVVPNPFSESGGDMKEWYHIKCMFEKLERARATTKKIEDLTELEGWEELEDNEKEQITQHIADLSSKAAGTPKKKAVVQAKLTTTGQVTSPVKGASFVTSTNPRKFSGFSAKPNNSGEAPSSPTPKRSLSSSKCDPRHKDCLLREFRKLCAMVADNPSYNTKTQIIQDFLRKGSAGDGFHGDVYLTVKLLLPGVIKTVYNLNDKQIVKLFSRIFNCNPDDMARDLEQGDVSETIRVFFEQSKSFPPAAKSLLTIQEVDEFLLRLSKLTKEDEQQQALQDIASRCTANDLKCIIRLIKHDLKMNSGAKHVLDALDPNAYEAFKASRNLQDVVERVLHNAQEVEKEPGQRRALSVQASLMTPVQPMLAEACKSVEYAMKKCPNGMFSEIKYDGERVQVHKNGDHFSYFSRSLKPVLPHKVAHFKDYIPQAFPGGHSMILDSEVLLIDNKTGKPLPFGTLGVHKKAAFQDANVCLFVFDCIYFNDVSLMDRPLCERRKFLHDNMVEIPNRIMFSEMKRVTKALDLADMITRVIQEGLEGLVLKDVKGTYEPGKRHWLKVKKDYLNEGAMADTADLVVLGAFYGQGSKGGMMSIFLMGCYDPGSQKWCTVTKCAGGHDDATLARLQNELDMVKISKDPSKIPSWLKVNKIYYPDFIVPDPKKAAVWEITGAEFSKSEAHTADGISIRFPRCTRIRDDKDWKSATNLPQLKELYQLSKEKADFTVVAGDEGSSTTGGSSEENKGPSGSAVSRKAPSKPSASTKKAEGKLSNSNSKDGNMQTAKPSAMKVGEKLATKSSPVKVGEKRKAADETLCQTKVLLDIFTGVRLYLPPSTPDFSRLRRYFVAFDGDLVQEFDMTSATHVLGSRDKNPAAQQVSPEWIWACIRKRRLVAPC
	binds	ATF7IP (Activating Transcription Factor 7-Interacting Protein 1) (protein, UniProt Q6VMQ6 1-1270) MDSLEEPQKKVFKARKTMRVSDRQQLEAVYKVKEELLKTDVKLLNGNHENGDLDPTSPLENMDYIKDKEEVNGIEEICFDPEGSKAEWKETPCILSVNVKNKQDDDLNCEPLSPHNITPEPVSKLPAEPVSGDPAPGDLDAGDPASGVLASGDSTSGDPTSSEPSSSDAASGDATSGDAPSGDVSPGDATSGDATADDLSSGDPTSSDPIPGEPVPVEPISGDCAADDIASSEITSVDLASGAPASTDPASDDLASGDLSSSELASDDLATGELASDELTSESTFDRTFEPKSVPVCEPVPEIDNIEPSSNKDDDFLEKNGADEKLEQIQSKDSLDEKNKADNNIDANEETLETDDTTICSDRPPENEKKVEEDIITELALGEDAISSSMEIDQGEKNEDETSADLVETINENVIEDNKSENILENTDSMETDEIIPILEKLAPSEDELTCFSKTSLLPIDETNPDLEEKMESSFGSPSKQESSESLPKEAFLVLSDEEDISGEKDESEVISQNETCSPAEVESNEKDNKPEEEEQVIHEDDERPSEKNEFSRRKRSKSEDMDNVQSKRRRYMEEEYEAEFQVKITAKGDINQKLQKVIQWLLEEKLCALQCAVFDKTLAELKTRVEKIECNKRHKTVLTELQAKIARLTKRFEAAKEDLKKRHEHPPNPPVSPGKTVNDVNSNNNMSYRNAGTVRQMLESKRNVSESAPPSFQTPVNTVSSTNLVTPPAVVSSQPKLQTPVTSGSLTATSVLPAPNTATVVATTQVPSGNPQPTISLQPLPVILHVPVAVSSQPQLLQSHPGTLVTNQPSGNVEFISVQSPPTVSGLTKNPVSLPSLPNPTKPNNVPSVPSPSIQRNPTASAAPLGTTLAVQAVPTAHSIVQATRTSLPTVGPSGLYSPSTNRGPIQMKIPISAFSTSSAAEQNSNTTPRIENQTNKTIDASVSKKAADSTSQCGKATGSDSSGVIDLTMDDEESGASQDPKKLNHTPVSTMSSSQPVSRPLQPIQPAPPLQPSGVPTSGPSQTTIHLLPTAPTTVNVTHRPVTQVTTRLPVPRAPANHQVVYTTLPAPPAQAPLRGTVMQAPAVRQVNPQNSVTVRVPQTTTYVVNNGLTLGSTGPQLTVHHRPPQVHTEPPRPVHPAPLPEAPQPQRLPPEAASTSLPQKPHLKLARVQSQNGIVLSWSVLEVDRSCATVDSYHLYAYHEEPSATVPSQWKKIGEVKALPLPMACTLTQFVSGSKYYFAVRAKDIYGRFGPFCDPQSTDVISSTQSS
	binds	RBM14 (protein, UniProt Q96PK6 1-669) MKIFVGNVDGADTTPEELAALFAPYGTVMSCAVMKQFAFVHMRENAGALRAIEALHGHELRPGRALVVEMSRPRPLNTWKIFVGNVSAACTSQELRSLFERRGRVIECDVVKDYAFVHMEKEADAKAAIAQLNGKEVKGKRINVELSTKGQKKGPGLAVQSGDKTKKPGAGDTAFPGTGGFSATFDYQQAFGNSTGGFDGQARQPTPPFFGRDRSPLRRSPPRASYVAPLTAQPATYRAQPSVSLGAAYRAQPSASLGVGYRTQPMTAQAASYRAQPSVSLGAPYRGQLASPSSQSAAASSLGPYGGAQPSASALSSYGGQAAAASSLNSYGAQGSSLASYGNQPSSYGAQAASSYGVRAAASSYNTQGAASSLGSYGAQAASYGAQSAASSLAYGAQAASYNAQPSASYNAQSAPYAAQQAASYSSQPAAYVAQPATAAAYASQPAAYAAQATTPMAGSYGAQPVVQTQLNSYGAQASMGLSGSYGAQSAAAATGSYGAAAAYGAQPSATLAAPYRTQSSASLAASYAAQQHPQAAASYRGQPGNAYDGAGQPSAAYLSMSQGAVANANSTPPPYERTRLSPPRASYDDPYKKAVAMSKRYGSDRRLAELSDYRRLSESQLSFRRSPTKSSLDYRRLPDAHSDYARYSGSYNDYLRAAQMHSGYQRRM

Where two headings read alike, the source gives them in different places. No constants are given. Whether binding was seen depends on the method and setting. In cells and extracts the contact can be indirect. These calls come from enrichment with a bait or labelling near it, and not all partners need be listed. For some of these results: Sequences can lack the tags named with a protein.
